tested on: Ehrlich ascites carcinoma cells; details: higher = less toxic and more effective

Compound	LD50 /ED50 Index
Cc1c(N)nc(C(CC(N)=O)NCC(N)C(N)=O)nc1C(=O)NC(C(=O)NC(C)C(O)C(C)C(=O)NC(C(=O)NCCc1nc(-c2nc(C(=O)NCCCNCCCN3CCCCC3)cs2)cs1)C(C)O)C(OC1OC(CO)C(O)C(O)C1OC1OC(CO)C(O)C(OC(N)=O)C1O)c1cnc[nH]1 (stereo not shown) [Compound 30, 3-(3-piperidinopropyl)-aminopropylamino-bleomycin]	17
Cc1c(N)nc(C(CC(N)=O)NCC(N)C(N)=O)nc1C(=O)NC(C(=O)NC(C)C(O)C(C)C(=O)NC(C(=O)NCCc1nc(-c2nc(C(=O)NCCCNCCc3cccnc3)cs2)cs1)C(C)O)C(OC1OC(CO)C(O)C(O)C1OC1OC(CO)C(O)C(OC(N)=O)C1O)c1cnc[nH]1 (stereo not drawn) [Compound 44, 3-[2-(β-pyridyl)-ethyl]-aminopropylamino-bleomycin]	49
Cc1c(N)nc(C(CC(N)=O)NCC(N)C(N)=O)nc1C(=O)NC(C(=O)NC(C)C(O)C(C)C(=O)NC(C(=O)NCCc1nc(-c2nc(C(=O)NCCCN3CCN(CCCN)CC3)cs2)cs1)C(C)O)C(OC1OC(CO)C(O)C(O)C1OC1OC(CO)C(O)C(OC(N)=O)C1O)c1cnc[nH]1 (stereo not shown) [Compound 28, 3-[1-{4-(3-aminopropyl)}-piperazino]propylamino-bleomycin]	46
Cc1c(N)nc(C(CC(N)=O)NCC(N)C(N)=O)nc1C(=O)NC(C(=O)NC(C)C(O)C(C)C(=O)NC(C(=O)NCCc1nc(-c2nc(C(=O)NCCCNCCCO)cs2)cs1)C(C)O)C(OC1OC(CO)C(O)C(O)C1OC1OC(CO)C(O)C(OC(N)=O)C1O)c1cnc[nH]1 (stereo not shown) [Compound 32, 3-(3-hydroxypropyl)-aminopropylamino-bleomycin]	30
Cc1c(N)nc([C@H](CC(N)=O)NC[C@H](N)C(N)=O)nc1C(=O)N[C@H](C(=O)N[C@H](C)[C@@H](O)[C@H](C)C(=O)N[C@H](C(=O)NCCc1nc(-c2nc(C(=O)NCCCCN=C(N)N)cs2)cs1)[C@@H](C)O)[C@@H](O[C@@H]1O[C@@H](CO)[C@@H](O)[C@H](O)[C@@H]1O[C@H]1O[C@H](CO)[C@@H](O)[C@H](OC(N)=O)[C@@H]1O)c1cnc[nH]1 [Compound 3, Bleomycin B2, reference compound]	10
Cc1c(N)nc(C(CC(N)=O)NCC(N)C(N)=O)nc1C(=O)NC(C(=O)NC(C)C(O)C(C)C(=O)NC(C(=O)NCCc1nc(-c2nc(C(=O)NCCCNCCCNC3CCCCC3)cs2)cs1)C(C)O)C(OC1OC(CO)C(O)C(O)C1OC1OC(CO)C(O)C(OC(N)=O)C1O)c1cnc[nH]1 (stereo not shown) [Compound 39, 3-(3-cyclohexylaminopropyl)-aminopropylamino bleomycin]	58
Cc1c(N)nc(C(CC(N)=O)NCC(N)C(N)=O)nc1C(=O)NC(C(=O)NC(C)C(O)C(C)C(=O)NC(C(=O)NCCc1nc(-c2nc(C(=O)NCCCN3CCCCC3)cs2)cs1)C(C)O)C(OC1OC(CO)C(O)C(O)C1OC1OC(CO)C(O)C(OC(N)=O)C1O)c1cnc[nH]1 (stereo not shown) [Compound 25, 3-(piperidino)-propylamino-bleomycin]	14
Cc1c(N)nc(C(CC(N)=O)NCC(N)C(N)=O)nc1C(=O)NC(C(=O)NC(C)C(O)C(C)C(=O)NC(C(=O)NCCc1nc(-c2nc(C(=O)NCCCNC3CCCCC3)cs2)cs1)C(C)O)C(OC1OC(CO)C(O)C(O)C1OC1OC(CO)C(O)C(OC(N)=O)C1O)c1cnc[nH]1 (stereo not shown) [Compound 38, 3-cyclohexylaminopropylamino-bleomycin]	22
CCCCNCCCNCCCNC(=O)c1csc(-c2csc(CCNC(=O)C(NC(=O)C(C)C(O)C(C)NC(=O)C(NC(=O)c3nc(C(CC(N)=O)NCC(N)C(N)=O)nc(N)c3C)C(OC3OC(CO)C(O)C(O)C3OC3OC(CO)C(O)C(OC(N)=O)C3O)c3cnc[nH]3)C(C)O)n2)n1 (stereo not shown) [Compound 12, 3-(3-N-butyl-aminopropyl)-aminopropylamino-bleomycin]	59
COCCCNCCCNC(=O)c1csc(-c2csc(CCNC(=O)C(NC(=O)C(C)C(O)C(C)NC(=O)C(NC(=O)c3nc(C(CC(N)=O)NCC(N)C(N)=O)nc(N)c3C)C(OC3OC(CO)C(O)C(O)C3OC3OC(CO)C(O)C(OC(N)=O)C3O)c3cnc[nH]3)C(C)O)n2)n1 (stereo not shown) [Compound 33, 3-(3-methoxypropyl)-aminopropylaminobleomycin]	39
Cc1c(N)nc(C(CC(N)=O)NCC(N)C(N)=O)nc1C(=O)NC(C(=O)NC(C)C(O)C(C)C(=O)NC(C(=O)NCCc1nc(-c2nc(C(=O)NCCCNC3CCCCC3O)cs2)cs1)C(C)O)C(OC1OC(CO)C(O)C(O)C1OC1OC(CO)C(O)C(OC(N)=O)C1O)c1cnc[nH]1 (stereo not shown) [Compound 47, 3-(2-hydroxycyclohexyl)-aminopropylamino-bleomycin]	12
Cc1c(N)nc(C(CC(N)=O)NCC(N)C(N)=O)nc1C(=O)NC(C(=O)NC(C)C(O)C(C)C(=O)NC(C(=O)NCCc1nc(-c2nc(C(=O)NCCCNCCCNC(C)c3ccccc3)cs2)cs1)C(C)O)C(OC1OC(CO)C(O)C(O)C1OC1OC(CO)C(O)C(OC(N)=O)C1O)c1cnc[nH]1 (stereo not shown) [Compound 15]	34
Cc1c(N)nc(C(CC(N)=O)NCC(N)C(N)=O)nc1C(=O)NC(C(=O)NC(C)C(O)C(C)C(=O)NC(C(=O)NCCc1nc(-c2nc(C(=O)NCCCN(C)CCCN)cs2)cs1)C(C)O)C(OC1OC(CO)C(O)C(O)C1OC1OC(CO)C(O)C(OC(N)=O)C1O)c1cnc[nH]1 (stereo not shown) [Compound 22, 3-[N-methyl-N-(3-aminopropyl)]-aminopropylamino-bleomycin]	48
Cc1c(N)nc(C(CC(N)=O)NCC(N)C(N)=O)nc1C(=O)NC(C(=O)NC(C)C(O)C(C)C(=O)NC(C(=O)NCCc1nc(-c2nc(C(=O)NCCCNCCCN3CCCC3)cs2)cs1)C(C)O)C(OC1OC(CO)C(O)C(O)C1OC1OC(CO)C(O)C(OC(N)=O)C1O)c1cnc[nH]1 (stereo not shown) [Compound 29, 3-(3-pyrrolidinopropyl)-aminopropylamino-bleomycin]	62
Cc1c(N)nc(C(CC(N)=O)NCC(N)C(N)=O)nc1C(=O)NC(C(=O)NC(C)C(O)C(C)C(=O)NC(C(=O)NCCc1nc(-c2nc(C(=O)NCCCN3CCOCC3)cs2)cs1)C(C)O)C(OC1OC(CO)C(O)C(O)C1OC1OC(CO)C(O)C(OC(N)=O)C1O)c1cnc[nH]1 (stereo not shown) [Compound 26, 3-(morpholino)-propylamoni-bleomycin]	18
CNCCCNC(=O)c1csc(-c2csc(CCNC(=O)C(NC(=O)C(C)C(O)C(C)NC(=O)C(NC(=O)c3nc(C(CC(N)=O)NCC(N)C(N)=O)nc(N)c3C)C(OC3OC(CO)C(O)C(O)C3OC3OC(CO)C(O)C(OC(N)=O)C3O)c3cnc[nH]3)C(C)O)n2)n1 (stereo not shown) [Compound 17, 3-N-methylaminopropylamino-bleomycin]	14
Cc1c(N)nc([C@H](CC(N)=O)NC[C@H](N)C(N)=O)nc1C(=O)N[C@H](C(=O)N[C@H](C)[C@@H](O)[C@H](C)C(=O)N[C@H](C(=O)NCCc1nc(-c2nc(C(=O)NCCCNCCCCN)cs2)cs1)[C@@H](C)O)[C@@H](O[C@@H]1O[C@@H](CO)[C@@H](O)[C@H](O)[C@@H]1O[C@@H]1O[C@H](CO)[C@@H](O)[C@H](OC(N)=O)[C@@H]1O)c1cnc[nH]1 [Compound 7, Bleomycin A5, reference compound]	79
Cc1c(N)nc(C(CC(N)=O)NCC(N)C(N)=O)nc1C(=O)NC(C(=O)NC(C)C(O)C(C)C(=O)NC(C(=O)NCCc1nc(-c2nc(C(=O)NCCCNC(C)c3ccccc3)cs2)cs1)C(C)O)C(OC1OC(CO)C(O)C(O)C1OC1OC(CO)C(O)C(OC(N)=O)C1O)c1cnc[nH]1 (stereo not shown) [Compound 35, 3-(1-phenylethyl)-aminopropyl-amino-bleomycin]	59
Cc1c(N)nc(C(CC(N)=O)NCC(N)C(N)=O)nc1C(=O)NC(C(=O)NC(C)C(O)C(C)C(=O)NC(C(=O)NCCc1nc(-c2nc(C(=O)NCCCNCCCN)cs2)cs1)C(C)O)C(OC1OC(CO)C(O)C(O)C1OC1OC(CO)C(O)C(OC(N)=O)C1O)c1cnc[nH]1 (stereo not shown) [Compound 48, 3-(aminopropyl)-aminopropylamino-bleomycin]	45
COCCNCCCNC(=O)c1csc(-c2csc(CCNC(=O)C(NC(=O)C(C)C(O)C(C)NC(=O)C(NC(=O)c3nc(C(CC(N)=O)NCC(N)C(N)=O)nc(N)c3C)C(OC3OC(CO)C(O)C(O)C3OC3OC(CO)C(O)C(OC(N)=O)C3O)c3cnc[nH]3)C(C)O)n2)n1 (stereo not shown) [Compound 45, 3-(2-methoxyethyl)-aminopropylamino-bleomycin]	24
Cc1c(N)nc(C(CC(N)=O)NCC(N)C(N)=O)nc1C(=O)NC(C(=O)NC(C)C(O)C(C)C(=O)NC(C(=O)NCCc1nc(-c2nc(C(=O)NCC(C)N)cs2)cs1)C(C)O)C(OC1OC(CO)C(O)C(O)C1OC1OC(CO)C(O)C(OC(N)=O)C1O)c1cnc[nH]1 (stereo not shown) [Compound 16, 2-aminopropylamino-bleomycin]	5
Cc1c(N)nc(C(CC(N)=O)NCC(N)C(N)=O)nc1C(=O)NC(C(=O)NC(C)C(O)C(C)C(=O)NC(C(=O)NCCc1nc(-c2nc(C(=O)NCCCN(C)C)cs2)cs1)C(C)O)C(OC1OC(CO)C(O)C(O)C1OC1OC(CO)C(O)C(OC(N)=O)C1O)c1cnc[nH]1 (stereo not shown) [Compound 19, 3-(N,N-dimethyl)-aminopropylamino-bleomycin]	20
Cc1c(N)nc(C(CC(N)=O)NCC(N)C(N)=O)nc1C(=O)NC(C(=O)NC(C)C(O)C(C)C(=O)NC(C(=O)NCCc1nc(-c2nc(C(=O)NCCCNCCCCCCN)cs2)cs1)C(C)O)C(OC1OC(CO)C(O)C(O)C1OC1OC(CO)C(O)C(OC(N)=O)C1O)c1cnc[nH]1 (stereo not shown) [Compound 43, 3-(6-aminohexyl)-aminopropylamino-bleomycin]	44
CCN(CC)CCCNC(=O)c1csc(-c2csc(CCNC(=O)C(NC(=O)C(C)C(O)C(C)NC(=O)C(NC(=O)c3nc(C(CC(N)=O)NCC(N)C(N)=O)nc(N)c3C)C(OC3OC(CO)C(O)C(O)C3OC3OC(CO)C(O)C(OC(N)=O)C3O)c3cnc[nH]3)C(C)O)n2)n1 (stereo not shown) [Compound 11, 3,-N,N-diethylaminopropylamino-bleomycin]	35
Cc1c(N)nc(C(CC(N)=O)NCC(N)C(N)=O)nc1C(=O)NC(C(=O)NC(C)C(O)C(C)C(=O)NC(C(=O)NCCc1nc(-c2nc(C(=O)NCCCN3CCNCC3)cs2)cs1)C(C)O)C(OC1OC(CO)C(O)C(O)C1OC1OC(CO)C(O)C(OC(N)=O)C1O)c1cnc[nH]1 (stereo not shown) [Compound 14, 3-(piperazino)propylamino-bleomycin]	14

Source: patent USRE30451E, “Novel process for producing antibiotics bleomycin” (priority 1969, dated 1980)
